Measured values as given in patent US7078398B2, “Compositions and methods for treating or preventing convulsions or seizures” (Vela Pharamaceuticals, Inc., priority 2001, dated 2006).
Like-named read-outs stand apart in the source and are kept apart here.

Test system: picrotoxin-induced seizures in male NSA mice
Assay: animal or person
Type: in vivo
Details: Mus musculus, i.p. 15 minutes prior to picrotoxin 5 mg/kg s.c.
Procedure: Anticonvulsant activity against picrotoxin-induced seizures is considered evidence of clinical antiepileptic potential and reason for further evaluation of a test compound's anticonvulsant profile (Swinyard, E. A. et al., General principles: experimental detection, quantification and evaluation of anticonvulsants. In: Antiepileptic Drugs, D. M. Woodbury et al., eds. Raven Press, New York (1990) pp. 111–126).
Picrotoxin (5 mg/kg, Sigma Chem. Co., St. Louis, Mo., USA) was dissolved in saline and administered subcutaneously to induce seizures. In addition, picrotoxin alone was administered to seven animals as a control. All test drugs were dissolved in dimethylsulfoxide (DMSO).
After picrotoxin injection, mice were placed into a plexiglass cage for 30 minutes of observation. The appearance of seizures was defined as the presence of a single episode of clonic or tonic activity (including myoclonic jerks) during the 30 minute observation period. […] Animals were euthanized immediately after the observation period by CO2 inhalation. The ED50 (the dose of test compound at which half of the animals were protected against picrotoxin-induced seizures) values and their 95% confidence limits were calculated by the method of Litchfield and Wilcoxon (J. Pharmacol. Exp. Ther. 96:99–113 (1949)).

Question: `CN1C(=O)CN=C(c2ccccc2)c2cc(Cl)ccc21` [diazepam] was tested. Which ED50 (read-out: ED50 (95% confidence limit), Example 2, enantiomers of Example 1, 30 minute observation) did it give?
Answer: The ED50 was 0.52 mg/kg.

Question: What about the ED50 (read-out: ED50 (95% confidence limit), Example 4, enantiomers of Example 3) of the same compound?
Answer: The ED50 was 0.45 mg/kg.
